Results are given in words; binding and its absence hold for the method and conditions named. For some assays here: In cells and extracts the contact can be indirect. Some entries that bind do so weakly or less than the wild type. Tags and fused reporters may be left off the sequences shown.

Amino acid sequences for entries named in this document (tags omitted).
UniProt P93002: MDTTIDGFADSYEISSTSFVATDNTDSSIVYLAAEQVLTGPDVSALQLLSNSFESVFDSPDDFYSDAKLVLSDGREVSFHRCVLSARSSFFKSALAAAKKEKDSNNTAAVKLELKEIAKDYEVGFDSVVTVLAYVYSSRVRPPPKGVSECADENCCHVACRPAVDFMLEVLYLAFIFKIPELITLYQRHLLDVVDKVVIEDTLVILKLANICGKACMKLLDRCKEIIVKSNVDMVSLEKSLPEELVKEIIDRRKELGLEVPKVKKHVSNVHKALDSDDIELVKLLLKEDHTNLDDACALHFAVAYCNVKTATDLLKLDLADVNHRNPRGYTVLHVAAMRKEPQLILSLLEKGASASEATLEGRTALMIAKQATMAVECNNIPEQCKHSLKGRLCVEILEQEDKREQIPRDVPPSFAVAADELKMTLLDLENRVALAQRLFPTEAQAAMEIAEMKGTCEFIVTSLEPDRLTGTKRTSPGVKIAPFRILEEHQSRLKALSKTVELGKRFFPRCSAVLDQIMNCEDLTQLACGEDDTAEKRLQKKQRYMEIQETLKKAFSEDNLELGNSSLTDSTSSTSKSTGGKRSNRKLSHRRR

For assay [1], the target named is T1, HOS15, full-length, yeast two-hybrid fusion (Arabidopsis thaliana) (UniProt Q9FN19).
T1 sequence: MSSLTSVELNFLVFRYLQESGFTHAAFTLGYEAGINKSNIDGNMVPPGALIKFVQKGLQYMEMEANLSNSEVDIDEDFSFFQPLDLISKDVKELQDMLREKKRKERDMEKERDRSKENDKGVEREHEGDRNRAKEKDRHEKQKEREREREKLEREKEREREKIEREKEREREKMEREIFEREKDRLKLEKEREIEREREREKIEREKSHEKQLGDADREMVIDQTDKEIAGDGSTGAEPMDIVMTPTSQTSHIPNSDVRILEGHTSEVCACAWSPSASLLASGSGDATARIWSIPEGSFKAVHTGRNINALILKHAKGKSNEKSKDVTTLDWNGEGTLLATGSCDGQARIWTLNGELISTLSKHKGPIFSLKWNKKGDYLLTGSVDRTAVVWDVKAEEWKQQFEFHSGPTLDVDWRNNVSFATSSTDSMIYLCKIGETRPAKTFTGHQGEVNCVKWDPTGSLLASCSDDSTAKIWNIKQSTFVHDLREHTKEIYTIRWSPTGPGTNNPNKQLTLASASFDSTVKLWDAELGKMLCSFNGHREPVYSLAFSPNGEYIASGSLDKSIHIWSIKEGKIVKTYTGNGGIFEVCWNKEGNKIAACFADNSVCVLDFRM
Nature of the assay: two-hybrid; yeast strain PJ694A; pDEST32 (BD, bait) and pDEST22 (AD, prey); growth on -TLH against -TL control medium; three independent transformants; empty vectors as negative controls.

The target in assay [2] is T2, HOS15-GFP (Arabidopsis thaliana) (UniProt Q9FN19).
T2 sequence: T1 sequence
Put plainly: co-IP; HOS15-GFP and NPR1-HA co-infiltrated in N. benthamiana leaves, extracted after three days; immunoprecipitated with anti-GFP, blotted with anti-HA.

With “Non-expresser of PR genes 1 (NPR1), full-length, yeast two-hybrid fusion (from UniProt P93002 1-593)”, the binding result in assay [1] is reported as “binds”.
For the substance NPR1-HA (from UniProt P93002 1-593), in assay [2], the binding result is given as “binds”.

The values above are taken from publication PMC8950481.
